Drawing on ChEMBL document CHEMBL4296182, “CO-ADD screening of NIH NCI Diversity Set V”, this text covers Inhibition for 77 compounds.

The list shows a part of the results. Results with a measured potency or affinity are listed apart.

In this experiment the test system is Pseudomonas aeruginosa. The settings on record: Concentration 20 uM; ASSAY_TEST Inhibition of Bacterial Growth; detection method Absorption (OD600); MEDIA CAMHB; plate type 384well; NBS; CORNING #3640; time 18 hr.
Turning to `COC1C(=O)CCC2(CO2)C1(O)C1(C)OC1CC=C(C)C` (configuration not stated), the Inhibition (commonly the change of the read-out against control, counted positive when it falls) worked out at 20.47%.

With `O=C(NC(=S)Nc1cc(Cl)ccc1O)c1cccc(Br)c1`, the Inhibition worked out at 13.53%.

Take `NC(=O)c1ccccc1NC(=O)COc1ccc(Cl)cc1`: the Inhibition was determined as 29.77%.

In the case of `O=C(O)CCNC1CCCCC1`, the Inhibition worked out at 10.22%.

For `Nc1ccc2c(c1)Cc1cc(Cl)c(Cl)cc1-2`, the Inhibition is 20.86%.

For the compound `S=c1c2nc[nH]c2ncn1CCSC1=NC=NC2=NC=NC21` (configuration not stated), the Inhibition is on record as 13.05%.

Turning to `Nc1ccc(N/C(S)=N/c2ccccc2)cc1`, the Inhibition came to 6.3%.

As for `O=C(Nc1csnn1)c1csnn1`, the Inhibition is recorded as -4.18%.

Turning to `COc1ccc(/C(C#N)=C/c2cccnc2)cc1`, the Inhibition is 11.13%.

Take `O=C(Cn1ccc(=O)[nH]c1=O)Nc1nccs1`: the Inhibition is 15.58%.

Turning to `FC(F)(F)c1nc2nc(Cl)c(Cl)nc2n1CCCN1CCOCC1`, the Inhibition is -7.1%.

As for `COc1cc2c(c3c1c(=O)c1cccc(F)c1n3C)C=CC(C)(C)O2`, the Inhibition amounted to 19.51%.

On to `Cc1ccc(Nc2c(O)ncnc2O)cc1C`, for which the Inhibition is -28.62%.

Turning to `Nc1ccc(NC(=O)Nc2ccc(N)cc2)cc1`, the Inhibition was determined as 0.96%.

Turning to `Nc1ncncc1-c1ccc2ccccc2c1`, the Inhibition worked out at 4.56%.

On to `CN(C)c1ncnc2c1ncn2-c1ccccc1`, for which the Inhibition turned out to be 1.81%.

In the case of `Nc1nc(N)c(/N=N/c2ccc(C(=O)O)cc2)c(N)n1`, the Inhibition worked out at 23.91%.

As for `CSc1nc(N)c(C(=O)Nc2ccc([N+](=O)[O-])cc2)s1`, the Inhibition came to 26.27%.

Regarding `O=C(Nc1cccc2ccccc12)c1ccccc1`, the Inhibition was -1%.

In the case of `O=C1COc2c1ccc(O)c2O`, the Inhibition is reported as 8.22%.

Take `CCn1c2ccccc2c2cc(NC(=O)Nc3ccc([N+](=O)[O-])cc3C)ccc21`: the Inhibition is given as 27.19%.

On to `Nc1ncnc(N2CCOCC2)n1`, for which the Inhibition amounted to 12.94%.

`NS(=O)(=O)c1ccc(Cl)cc1[N+](=O)[O-]`: the Inhibition stood at 10.53%.

As for `N#C/C(=C\c1c[nH]c2ccccc12)C(N)=O`, the Inhibition is -1.57%.

In the case of `CCCCSc1nc(O)cc(C(=O)O)n1`, the Inhibition amounted to 1.18%.

With `O=C1CCC(NC(=O)c2ccccc2)C(=O)N1` (configuration not stated), the Inhibition stood at 10.66%.

With `OCC1(CO)COC2(CCCC2)N1`, the Inhibition is listed as 18.54%.

As to `Cc1ccc(C)c(N2CCN(c3ccncc3N)CC2)c1`, the Inhibition is on record as 11.49%.

As for `N#C/C(=C\c1ccc(C#N)cc1)C(=O)c1ccccc1`, the Inhibition was determined as 13.09%.

For `CC(NC(=O)c1ccc(Cl)c(Cl)c1)c1ccc(-c2ccccc2)cc1` (configuration not stated), the Inhibition is 26.03%.

`O=[N+]([O-])c1ccc(NN=C(c2ccccc2)c2ccccc2)nc1`: the Inhibition is on record as 13.56%.

For `O=C(Nc1ccc(Cl)c(Cl)c1)Nc1ccccc1O`, the Inhibition was -9.09%.

Regarding `O=C(O)C1CCC(=O)N1C(=O)OCc1ccccc1` (configuration not stated), the Inhibition came out at 27.01%.

As to `CCOC(=O)Nc1ccc2[nH]c(-c3cscn3)nc2c1`, the Inhibition was found to be 20.88%.

On to `CC(C)n1cnc2c(S)ncnc21`, for which the Inhibition came out at 21.29%.

As for `Nc1nnc(-c2cccnc2)s1`, the Inhibition was -1.75%.

In the case of `N=C(NOC(=O)c1ccccc1)C(Cc1ccccc1)C(=O)NOC(=O)c1ccccc1` (configuration not stated), the Inhibition amounted to 25.5%.

Take `CCOC(=O)c1c(C)c(C(=O)OCC)n(C)c1C`: the Inhibition was -4.64%.

Consider `[O-]/[N+](=C\c1ccccc1)CC1(O)CCCCC1`, for which the Inhibition was 12.13%.

Regarding `CCOC(CNCc1cc(C)c2[nH]c3ccccc3c2c1C)OCC`, the Inhibition is 5.75%.

`CCCOc1nc2c(c(=O)n(C)c(=O)n2C)n1C`: the Inhibition is 2.64%.

For `OCc1ncccc1O`, the Inhibition was 3.5%.

With `Cc1ccc(C(=N)Nc2ccccc2)cc1`, the Inhibition is given as 8.96%.

`O=C(Nc1ccccc1)Oc1cccnc1O`: the Inhibition is 4.14%.

As for `O=C1OC(Cc2ccccc2)C(c2ccccc2)C1=O` (configuration not stated), the Inhibition amounted to 4.23%.

Take `Cc1nc2ccccc2c(N)c1-c1cc(C)c2c(C)nc3ccccc3c2n1`: the Inhibition was -5.19%.

Regarding `O=C(Nc1ccc(O)c(C(=O)O)c1)Oc1ccccc1`, the Inhibition is recorded as -10.73%.

On to `COc1cccc(-c2nnc(N)o2)c1`, for which the Inhibition is recorded as -0.55%.

With `O=C(Nc1ccc2ccccc2c1)c1cccc(F)c1`, the Inhibition was 7.7%.

In the case of `ON=C(NCc1ccccc1)c1ccccc1`, the Inhibition was -32.49%.

Consider `Oc1ccccc1Nc1ccccn1`, for which the Inhibition was found to be 28.86%.

In the case of `Brc1ccc(-c2csc(Nc3nc(-c4ccc(Br)cc4)cs3)n2)cc1`, the Inhibition is 21.13%.

Take `Cc1ccc(S(=O)(=O)NC(=O)Nc2nccs2)cc1`: the Inhibition was 15.02%.

On to `c1ccc(-c2cc3ccccc3[nH]2)cc1` [2-PHENYL-1H-INDOLE], for which the Inhibition turned out to be 24.3%.

With `CC1=CN2C(c3cccc([N+](=O)[O-])c3)=NON(c3ccc(C)cn3)C2C=C1` (configuration not stated), the Inhibition was determined as 31.3%.

As to `COc1ccc(C(=O)O)nc1C`, the Inhibition turned out to be 17.11%.

As to `CSc1nc(O)c(Nc2cccc(Cl)c2)c(O)n1`, the Inhibition is reported as 1.8%.

Take `Cc1cc(NC(=O)c2ccccc2)nc(C)n1`: the Inhibition was 21.03%.

For the compound `O=c1c(-c2ccc(O)cc2)coc2cc(O)cc(O)c12` [GENISTEIN], the Inhibition was determined as 5.66%.

On to `NCCN1CCNCC1`, for which the Inhibition was determined as 11.73%.

Regarding `CN(C)S(=O)(=O)c1ccccc1N=C=S`, the Inhibition was determined as 12.6%.

Take `Cc1nc2ccccc2nc1N1CCCC1`: the Inhibition came out at 2.53%.

For the compound `COc1cc(C(=O)OC(C)CN2CCOCC2)cc(OC)c1OC` (configuration not stated), the Inhibition is on record as 21.56%.

`O=C(c1cccnc1)N1CCN(c2ccccc2Cl)CC1`: the Inhibition was determined as 27.14%.

As for `S=C1N(c2ccccc2)CN(C2CCCCC2)CN1c1ccccc1`, the Inhibition was -0.76%.

For the compound `N#CC1=CC2CN(Cc3ccccc3)C1C1C(=O)N(c3ccccc3)C(=O)C21` (configuration not stated), the Inhibition was -5.11%.

For the compound `CC(C)(C)N1CCC1CN` (configuration not stated), the Inhibition is given as 21.89%.

As for `COc1ccc(NC(=O)c2cc3ccc4c5ccccc5[nH]c4c3cc2O)cc1`, the Inhibition is on record as 22.24%.

With `C=CCSc1n[nH]c(-c2cccs2)n1`, the Inhibition came out at 3.24%.

On to `c1ccc2c(c1)-c1cccc3cncc-2c13`, for which the Inhibition is listed as -2.28%.

As for `OC(c1ccccc1)(c1ccccc1)c1nccn1-c1ccccc1`, the Inhibition is on record as 2.08%.

Consider `Cc1c(Cc2ccccc2)[n+]([O-])c2ccccc2[n+]1[O-]`, for which the Inhibition is given as 14.84%.

`Cc1ccc(C)c(-n2c(-c3ccc(Br)cc3)cs/c2=N\C(=O)c2ccccc2F)c1`: the Inhibition came to 17.59%.

For the compound `C#CCOCC1CN(c2ccccc2)C(=O)O1` (configuration not stated), the Inhibition was found to be 0.87%.

In the case of `CC(=C/c1ccccc1)/C=C1/NC(=S)NC1=O`, the Inhibition is on record as -5.16%.

Regarding `O=C1c2ccccc2C(=O)C1c1ccccn1`, the Inhibition was -12.18%.

For `O=C1c2ccccc2C(=O)c2c1cccc2-n1nnc2ccccc21`, the Inhibition is 12.91%.
